Source: PubChem BioAssay AID504764 (Drosophila RNAi Screening Center, 2011)
The screen tested about 22,000 reagents; this is an unselected part of those that have a named target and a result. Over the whole deposit, 403 (1.9%) are marked active. 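Unnormalised raw counts per well; ratio z-scores behind the hit calls and whether each hit raises or lowers signal are not deposited.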 Unmarked entries are inactive. Names joined by + are all predicted targets of the reagent. Not stated in the record: the amount of reagent.

Purpose: 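Genome-wide screen for regulators of Notch-driven gene expression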 (primary screen)
System: Drosophila Kc167 cells
Reagents: long dsRNA against Drosophila genes
Time to read-out: about 5 days (4 days dsRNA, then 24 h after transfection)
Challenge: transfection of constitutively active membrane-tethered Notch lacking the extracellular domain, read 24 h later
Measured: 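Light from a Notch-responsive E(spl)m3 luciferase reporter under active Notch, with control-promoter and no-Notch reporter wells to normalise; raw counts from paired wells a and b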
Reading the numbers: induced reporter light, run 1, well a and induced reporter light, run 1, well b: higher = more light from the Notch target reporter with active Notch; control promoter light, run 1, well a and control promoter light, run 1, well b: higher = more light from the viral control promoter (cell number, transfection, viability); uninduced reporter light, run 1, well a: higher = more light from the Notch target reporter without active Notch
Active means: 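Wells with low control signal or poorly matching duplicates excluded; duplicates averaged; per source plate, z beyond ±2 for induced/control log2 ratio or beyond ±1.8 for induced/uninduced marks a hit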
Calls: active = modifier hit (raised or lowered Notch signal); inactive = not a hit

gene knocked down | DRSC id | induced reporter light, run 1, well a | induced reporter light, run 1, well b | control promoter light, run 1, well a | control promoter light, run 1, well b | uninduced reporter light, run 1, well a
Sry-alpha | DRSC16867 | 1.60e5 | 1.41e5 | 1.98e5 | 1.91e5 | 12435
CG13096 | DRSC02198 | 1.10e5 | 1.37e5 | 98500 | 1.33e5 | 14650
CG42671 | DRSC09093 | 48055 | 43725 | 28080 | 24275 | 9500
CG42671 | DRSC10321 | 1.18e5 | 1.17e5 | 2.17e5 | 1.73e5 | 7260
Ir75b | DRSC10189 | 1.73e5 | 1.71e5 | 2.09e5 | 1.68e5 | 7015
wde | DRSC05955 | 85820 | 83310 | 65550 | 60960 | 6440
Dus2 | DRSC19591 | 2.36e5 | 1.82e5 | 2.79e5 | 3.03e5 | 13280
eyg | DRSC11344 | 8860 | 7595 | 8365 | 6550 | 3430
Or2a | DRSC18690 | 1.16e5 | 1.26e5 | 2.08e5 | 2.30e5 | 8610
CG18234 | DRSC10309 | 1.38e5 | 1.73e5 | 2.30e5 | 1.68e5 | 9410
DIP1 | DRSC20818 | 1.33e5 | 1.09e5 | 1.48e5 | 1.72e5 | 12985
Dtwd2 + Obp84a | DRSC12603 | 96720 | 80965 | 1.16e5 | 77005 | 7055
Hsp70Bb + Hsp70Ba + Hsp70Bc + 1 more | DRSC21247 | 61605 | 57610 | 83190 | 89230 | 7185
Hsp70Bb + Hsp70Ba + Hsp70Bc + 1 more | DRSC21248 | 34735 | 37845 | 51160 | 52545 | 3715
ttm50 | DRSC18587 | 1.36e5 | 1.78e5 | 1.87e5 | 2.26e5 | 9615
CG7650 | DRSC10898 | 1.76e5 | 1.52e5 | 2.39e5 | 1.64e5 | 6325
Send1 | DRSC00482 | 96635 | 1.15e5 | 73455 | 40790 | 8950
CG11634 | DRSC03700 | 43630 | 45375 | 44800 | 33860 | 3695
CG14313 | DRSC14792 | 1.39e5 | 1.31e5 | 1.67e5 | 1.80e5 | 11840
CG15254 | DRSC01870 | 1.18e5 | 1.39e5 | 1.51e5 | 1.35e5 | 12835
Sld5 | DRSC14892 | 1.48e5 | 1.41e5 | 1.54e5 | 1.93e5 | 13395
CG3662 | DRSC00626 | 1.95e5 | 1.91e5 | 1.71e5 | 2.11e5 | 18160
CG42394 + CG6567 | DRSC12821 | 2.00e5 | 1.68e5 | 1.95e5 | 1.86e5 | 12528
Gycbeta100B | DRSC14039 | 1.04e5 | 1.20e5 | 1.17e5 | 1.39e5 | 7940
Gycbeta100B | DRSC14040 | 88115 | 1.13e5 | 1.45e5 | 1.39e5 | 8660
Gycbeta100B | DRSC16691 | 2.07e5 | 1.90e5 | 2.58e5 | 2.75e5 | 13075
CG6290 | DRSC19979 | 1.34e5 | 1.01e5 | 1.04e5 | 61530 | 8985
fkh | DRSC16949 | 1.46e5 | 1.34e5 | 1.92e5 | 1.64e5 | 11000
nbs | DRSC11373 | 1.52e5 | 1.17e5 | 2.06e5 | 1.11e5 | 7755
CG10063 | DRSC09688 | 3.39e5 | 2.64e5 | 3.51e5 | 3.95e5 | 14110
CG17211 | DRSC02587 | 1.34e5 | 1.33e5 | 1.31e5 | 1.48e5 | 9820
ssx | DRSC18492 | 1.03e5 | 1.57e5 | 1.32e5 | 1.22e5 | 15570
Sp7 | DRSC15461 | 52140 | 75225 | 57865 | 49315 | 3505
MED26 | DRSC17126 | 29315 | 38490 | 33745 | 32295 | 3085
MED26 | DRSC17147 | 1.28e5 (active) | 1.20e5 | 2.98e5 | 3.86e5 | 8415
MED26 | DRSC17148 | 1.12e5 | 95840 | 1.95e5 | 1.96e5 | 12480
sens | DRSC09263 | 3000 | 3675 | 5425 | 6075 | 3920
wnd | DRSC09626 | 2.26e5 | 3.14e5 | 3.66e5 | 2.31e5 | 20235
wnd | DRSC11046 | 99075 | 1.41e5 | 93900 | 94315 | 7560
CG1695 | DRSC20538 | 82140 | 93610 | 1.02e5 | 1.58e5 | 11240
CG17549 | DRSC02625 | 1.88e5 | 1.93e5 | 2.02e5 | 2.13e5 | 16590
ninaB | DRSC16807 | 2.01e5 | 2.07e5 | 2.13e5 | 2.24e5 | 16375
gbb | DRSC04687 | 1.65e5 (active) | 1.29e5 | 1.81e5 | 1.78e5 | 10975
Drice | DRSC16715 | 1.52e5 | 1.66e5 | 1.94e5 | 2.21e5 | 11778
CheA7a | DRSC17965 | 1.65e5 | 1.37e5 | 3.02e5 | 2.66e5 | 10430
sav | DRSC14681 | 2.14e5 | 1.84e5 | 2.38e5 | 2.52e5 | 16690
sav | DRSC14682 | 1.95e5 | 1.80e5 | 2.37e5 | 2.02e5 | 14855
Cmpk | DRSC16643 | 1.75e5 | 1.82e5 | 2.53e5 | 2.72e5 | 10880
CG2852 | DRSC04321 | 1.60e5 | 1.33e5 | 1.56e5 | 1.40e5 | 11945
CG14860 | DRSC14983 | 2.59e5 | 2.58e5 | 1.92e5 | 2.06e5 | 20765
CG13531 | DRSC04173 | 1.61e5 | 1.36e5 | 1.38e5 | 1.53e5 | 9290
CG30423 | DRSC04013 | 42950 | 53375 | 78690 | 64610 | 4545
Sply | DRSC07299 | 1.49e5 | 1.66e5 | 2.48e5 | 2.40e5 | 13455
epsilonTry | DRSC07611 | 1.36e5 | 1.36e5 | 1.86e5 | 1.59e5 | 12775
CG4661 | DRSC19910 | 1.22e5 | 1.26e5 | 1.79e5 | 1.96e5 | 8525
CG11444 | DRSC17784 | 1.48e5 | 1.54e5 | 2.37e5 | 2.24e5 | 9945
CG31275 | DRSC16919 | 2.79e5 (active) | 2.90e5 | 2.01e5 | 2.31e5 | 18355
Galphai | DRSC11168 | 1.06e5 | 81895 | 77070 | 15795 | 10470
TfIIEalpha | DRSC11303 | 1.14e5 | 1.38e5 | 76970 | 35395 | 12175
Rnb | DRSC16325 | 1.80e5 | 1.97e5 | 2.28e5 | 2.41e5 | 14505
Mst77F | DRSC11871 | 1.15e5 | 1.26e5 | 1.04e5 | 1.24e5 | 10125
mRpL1 | DRSC16251 | 70145 | 58395 | 49485 | 40435 | 5420
sNPF | DRSC02309 | 41345 | 34260 | 47030 | 31280 | 3020
Oga | DRSC15901 | 1.76e5 | 1.65e5 | 2.07e5 | 2.11e5 | 14115

Look-ups from the entries so far.
Under “uninduced reporter light, run 1, well a”, mRpL1 [DRSC16251] has 5420
For “induced reporter light, run 1, well b”, CG14860 [DRSC14983] reads 2.58e5
CG42671 [DRSC09093], control promoter light, run 1, well b: 24275
Under “induced reporter light, run 1, well b”, CG42671 [DRSC10321] is entered as 1.17e5
ssx [DRSC18492], control promoter light, run 1, well b: 1.22e5
CG11444 [DRSC17784], induced reporter light, run 1, well b: 1.54e5
